{
  "sequences": {"note": "Sequences of proteins named here, by UniProt entry; tags and fusion partners are left off.", "UniProt O15379, whole entry, looked up": "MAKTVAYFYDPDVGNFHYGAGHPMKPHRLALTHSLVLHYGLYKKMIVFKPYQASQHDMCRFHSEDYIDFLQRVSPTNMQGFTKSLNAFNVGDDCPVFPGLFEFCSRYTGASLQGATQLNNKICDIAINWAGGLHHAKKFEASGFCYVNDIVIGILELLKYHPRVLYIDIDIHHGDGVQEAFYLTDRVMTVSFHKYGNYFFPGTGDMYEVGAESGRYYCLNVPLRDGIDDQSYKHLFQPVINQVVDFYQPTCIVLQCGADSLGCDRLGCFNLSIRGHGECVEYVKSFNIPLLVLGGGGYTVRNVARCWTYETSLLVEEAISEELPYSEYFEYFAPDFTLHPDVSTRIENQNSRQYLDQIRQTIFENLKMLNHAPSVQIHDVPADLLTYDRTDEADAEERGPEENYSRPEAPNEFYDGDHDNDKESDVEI"},
  "source": "PubChem BioAssay AID2718",
  "about": "(Broad Institute, 2010)",
  "note": "The campaign covered roughly 320,000 compounds. About 480 (0.15%) were called active. Inconclusive results, whose numbers are uncertain, are shown with a selection of clear calls. Cut-off read from the data, not from the text of the source: active = inhibition above about 26% (passing the limit was not always enough); inconclusive = no clear call, values can overlap the other calls.",
  "data": [
    {"biological_target": "Histone deacetylase 3 (Homo sapiens) (UniProt O15379)", "test": "HDAC3 deacetylase inhibitors, primary screen, biochemical, fluorescence, cell-free homogeneous (AID 2718)", "conditions": "recombinant HDAC3, fluorogenic peptide/trypsin coupled, at 8.3 µM, active compounds read high", "values": [
      {"smiles": "CCOC(=O)c1c(NC(=O)c2ccccc2Br)sc2c1CCc1ccccc1-2", "inhibition": "inactive: -0.287%"},
      {"smiles": "CCOC(=O)C1(CCOc2ccccc2)CCN(Cc2cccc(OC)c2O)CC1", "inhibition": "inactive: -4.14%"},
      {"smiles": "O=C(NCCc1cccnc1)c1cc(COc2ccc(F)cc2Cl)on1", "inhibition": "inactive: -0.248%"},
      {"smiles": "COC(=O)c1ccc(NC(=S)N2CCN(C)CC2)cc1", "inhibition": "inconclusive: 20.2%"},
      {"smiles": "CC(=O)c1ccc(NC(=O)CCCC(=O)c2ccccc2)cc1", "inhibition": "inactive: 5.27%"},
      {"smiles": "C/C=C/C=C/C(=O)N1CC2(CC(c3cccc(NC(=O)CCCCC)c3)=NO2)C[C@H]1C(N)=O", "note": "(stereo partly drawn)", "inhibition": "active: 60.8%"},
      {"smiles": "Cc1ccc(N=C2N=C(N)c3ccccc32)c(C)c1", "inhibition": "inconclusive: 13.9%"},
      {"smiles": "CN(C1CCS(=O)(=O)C1)S(=O)(=O)c1ccccc1", "note": "(stereo not drawn)", "inhibition": "inconclusive: 14.2%"},
      {"smiles": "CC1CCCN(S(=O)(=O)Cc2ccc(Cl)cc2)C1", "note": "(stereo not drawn)", "inhibition": "inconclusive: 31.1%"},
      {"smiles": "O=C(/C=C/c1cccc(C(F)(F)F)c1)OCC(=O)N1CCN(c2ccccc2)CC1", "inhibition": "inactive: 3.51%"},
      {"smiles": "COc1cccc(C(=O)NC(=S)Nc2ccc(Cl)cc2C(=O)O)c1", "inhibition": "inactive: -10.2%"},
      {"smiles": "CCOC(=O)c1ccc(NC(=O)COc2ccc(S(=O)(=O)N3CCCC3)cc2)cc1", "inhibition": "inconclusive: 16.8%"},
      {"smiles": "COc1ccc(CNC(=O)CN2CCN(C(c3ccccc3)c3ccccc3)CC2)cc1", "inhibition": "inactive: 14.3%"},
      {"smiles": "COc1ccc(CCNC(=O)CCn2c(=O)c3ccccc3n(CC(=O)NCC3CCCO3)c2=O)cc1OC", "note": "(stereo not drawn)", "inhibition": "inconclusive: 14.4%"},
      {"smiles": "CCC1=C(OC(=O)N(CC)CC)N2C(=O)OC(=NCCc3c[nH]c4ccccc34)[C@]2(Cc2ccccc2)[C@H]2C1=CC[C@H]1C(=O)N(CC(=O)OC)C(=O)[C@H]12", "inhibition": "inconclusive: 23.6%"},
      {"smiles": "CCS(=O)(=O)C1=NN2C(=N)/C(=C\\c3ccc(OC(=O)c4ccco4)c(Br)c3)C(=O)N=C2S1", "inhibition": "active: 39.2%"},
      {"smiles": "COc1ccc([N+](=O)[O-])cc1NC(=O)c1ccc(C)o1", "inhibition": "inconclusive: 18.8%"},
      {"smiles": "O=C1Nc2ccc(F)cc2C12OCCO2", "inhibition": "inconclusive: 13.3%"},
      {"smiles": "Cc1cc(C)cc(C(=O)n2cnnc2N)c1", "inhibition": "inconclusive: 35.5%"},
      {"smiles": "COc1ccc(S(=O)(=O)NCc2cc(=O)n(C)c(=O)n2C)cc1F", "inhibition": "inconclusive: 21.7%"},
      {"smiles": "Cc1nc(Sc2ccc(Br)cc2)c(C#N)c(C)c1[N+](=O)[O-]", "inhibition": "inconclusive: 15.2%"},
      {"smiles": "O=C(Nc1ncn[nH]1)c1cc([N+](=O)[O-])ccc1Cl", "inhibition": "inactive: -4.06%"},
      {"smiles": "COc1ccc(Cl)cc1NC(=O)CN(C)C(=O)c1ccc(N2CCCCCC2)c([N+](=O)[O-])c1", "inhibition": "inactive: 17.1%"},
      {"smiles": "CCNC(=S)N(CCc1ccc(OC)c(OC)c1)Cc1cc2cc(OC)ccc2[nH]c1=O", "inhibition": "inconclusive: 17.7%"},
      {"smiles": "COc1ccccc1N(CC(=O)NC1CCCCC1)C(=O)CCC(=O)Nc1nccs1", "inhibition": "inconclusive: 14.2%"},
      {"smiles": "Cc1cccc(NC(=O)c2ccc(S(=O)(=O)N3CCCCC3)cc2)c1", "inhibition": "inactive: -3.27%"},
      {"smiles": "Cc1nnc2n(c1=O)N=C(c1ccc(Cl)cc1)CS2", "inhibition": "active: 59.5%"},
      {"smiles": "Cc1c(O)ccc2c(=O)c(-c3nncn3-c3ccccc3)coc12", "inhibition": "inconclusive: 18%"},
      {"smiles": "Cc1ccsc1C(=O)OCC(=O)N1CCN(c2ccccc2)CC1", "inhibition": "inconclusive: 18.3%"},
      {"smiles": "O=C(Cn1[nH]c(=O)c2ccccc2c1=O)OCC(=O)N1CCc2ccccc2C1", "inhibition": "inactive: 14.9%"},
      {"smiles": "CCn1c(NC(=O)c2cccs2)c(-c2cccs2)c(=O)c2ccccc21", "inhibition": "inconclusive: 11.1%"},
      {"smiles": "CC(Oc1ccccc1)C(=O)Nc1ccc(NC(=O)c2ccccc2)cc1", "note": "(stereo not drawn)", "inhibition": "inconclusive: 23.7%"},
      {"smiles": "Cc1[nH]nc(SCC(=O)NCc2ccc(Cl)cc2)c1[N+](=O)[O-]", "inhibition": "inactive: 2.94%"},
      {"smiles": "O=C(COC(=O)c1ccc(N2CCCC2=O)cc1)c1ccccc1", "inhibition": "inactive: -3.5%"},
      {"smiles": "COc1ccc(-c2nn(-c3ccccc3)cc2/C=C/C(=O)NCCCn2ccnc2)cc1OC", "inhibition": "inconclusive: 11.9%"},
      {"smiles": "O=C(COc1ccc2ccccc2c1)Nc1nnc(-c2ccco2)s1", "inhibition": "inactive: -1.57%"},
      {"smiles": "CC(C)COC(=O)NC1c2ccccc2Oc2ccccc21", "inhibition": "inactive: 4.81%"},
      {"smiles": "COC(=O)C1CCN(c2ccc([N+](=O)[O-])cc2[N+](=O)[O-])CC1", "inhibition": "inconclusive: 15.2%"},
      {"smiles": "Cc1ccc(CCNC(=O)c2ccc(CS(=O)(=O)Cc3ccc(F)cc3)o2)cc1", "inhibition": "inconclusive: 20.8%"},
      {"smiles": "CCOCc1nnc(NC(=O)CSc2ccccc2)s1", "inhibition": "inactive: 0.0322%"},
      {"smiles": "O=C(NCC(=O)N(c1cccnc1)C(C(=O)NC1CCCCC1)c1ccccc1F)c1ccco1", "note": "(stereo not drawn)", "inhibition": "inactive: -7.07%"},
      {"smiles": "Clc1ccc(CN2CCN(c3ncccn3)CC2)c(Cl)c1", "inhibition": "inactive: 2.94%"},
      {"smiles": "Cc1cc(C(=O)c2cccs2)c(N)s1", "inhibition": "inconclusive: 8.09%"},
      {"smiles": "Cc1ccc(C(=O)CNc2ccc(C)c(Cl)c2)cc1", "inhibition": "inconclusive: 19.5%"},
      {"smiles": "O=C(CC1SC(=O)N(c2ccccc2)C1=O)Nc1cccc2ccccc12", "note": "(stereo not drawn)", "inhibition": "inconclusive: 27.1%"},
      {"smiles": "CCCCc1cc(-c2n[nH]c(=S)o2)c2ccccc2n1", "inhibition": "inactive: -0.343%"},
      {"smiles": "CCOC(=O)C1=C(C)N=c2s/c(=C\\c3ccc(OCC(=O)O)cc3)c(=O)n2C1c1ccc(OC(C)C)cc1", "note": "(stereo not drawn)", "inhibition": "inconclusive: 21.2%"},
      {"smiles": "CN(c1ccccc1)S(=O)(=O)c1ccc(C(=O)Nc2ncccc2O)cc1", "inhibition": "inconclusive: 27.3%"},
      {"smiles": "Oc1ccccc1/C=N/Nc1nn[nH]n1", "inhibition": "inactive: 1.69%"},
      {"smiles": "COc1cccc(Nc2n[nH]c(=S)s2)c1", "inhibition": "inconclusive: 18%"},
      {"smiles": "Cc1cc(C(=O)OCC(=O)Nc2c(F)cccc2F)c(C)n1-c1ccccc1", "inhibition": "inactive: 2.67%"},
      {"smiles": "O=C(NNC(=O)c1ccc(SCC2CCCO2)c([N+](=O)[O-])c1)c1ccc(F)cc1", "note": "(stereo not drawn)", "inhibition": "inconclusive: 15.7%"},
      {"smiles": "CC1Cc2ccccc2N1C(=O)CSc1nnc(Cn2nnc3ccccc32)n1C", "note": "(stereo not drawn)", "inhibition": "inconclusive: 11.3%"},
      {"smiles": "COc1ccccc1N1CCN(C(=O)c2ccc(-c3ccc(Cl)cc3)o2)CC1", "inhibition": "inconclusive: 21.9%"},
      {"smiles": "O=C(Cc1ccc(S(=O)(=O)N2CCOCC2)s1)Nc1cc(C(F)(F)F)cc(C(F)(F)F)c1", "inhibition": "inconclusive: 28.7%"},
      {"smiles": "Cc1ccc(CSc2nc3c(c(SCC(=O)O)n2)CCCC3)cc1", "inhibition": "inconclusive: 13.4%"},
      {"smiles": "O=Cc1c(-c2ccccc2)nc2ccccn12", "inhibition": "inactive: -0.494%"},
      {"smiles": "C/C(=N\\NC(=O)c1c(Cl)c(C)nn1C)c1cccc(NC(=O)COc2ccc(Cl)cc2)c1", "inhibition": "inconclusive: 13.5%"},
      {"smiles": "Cc1ccc(NC(=O)c2cccs2)cc1NC(=O)c1cccnc1", "inhibition": "inconclusive: 24.3%"},
      {"smiles": "COC(=O)[C@H](C)NC(=O)NC1CCN(Cc2ccccc2)CC1", "inhibition": "inconclusive: 21.4%"},
      {"smiles": "CN(CC(=O)Nc1ccc(F)cc1)C(=O)CCc1ccccc1", "inhibition": "inconclusive: 17.2%"},
      {"smiles": "COc1ccc([C@H]2CC(=O)C=C(c3ccc(Cl)c(C(F)(F)F)c3)C2)cc1OC", "inhibition": "inactive: -3.72%"},
      {"smiles": "O=C(O)c1ccccc1-c1nc2ccccc2c(=O)n1O", "inhibition": "inconclusive: 16.3%"},
      {"smiles": "Clc1ccc(-c2nn3c(-c4ccccc4)nnc3s2)cc1", "inhibition": "inconclusive: 14.1%"},
      {"smiles": "CCOC(=O)C1CCCN(Cc2ccccc2C)C1", "note": "(stereo not drawn)", "inhibition": "inconclusive: 33.7%"},
      {"smiles": "CC(=O)Nc1cccc(NC(=O)c2cc(Cl)ccc2Cl)c1", "inhibition": "inconclusive: 21%"},
      {"smiles": "Cc1cc(C)c(Nc2ncccc2C(=O)O)c(C)c1", "inhibition": "inconclusive: 19.6%"},
      {"smiles": "O=c1c2nncn2c2cccnc2n1CCNc1ncc(C(F)(F)F)cc1Cl", "inhibition": "inconclusive: 38.7%"},
      {"smiles": "C#CCn1cc(/C=C2\\NC(=O)NC2=O)c2ccccc21", "inhibition": "inactive: -6.25%"},
      {"smiles": "CCOc1ccc(-c2csc(Cn3c(CN4CCN(C)CC4)nc4ccccc4c3=O)n2)cc1", "inhibition": "inconclusive: 20.7%"},
      {"smiles": "Nc1nc2ccccc2n1/N=C/c1ccc(-c2ccccc2)o1", "inhibition": "inconclusive: 23.1%"},
      {"smiles": "CCCCc1oc2ccccc2c1C(=O)c1cc(I)c(OCCN(CC)CC)c(I)c1", "inhibition": "inconclusive: 16.9%"},
      {"smiles": "COc1ccc(S(=O)(=O)n2nc(OC(=O)c3ccc(C)cc3)cc2N)cc1", "inhibition": "active: 61.4%"},
      {"smiles": "Cc1ccccc1-c1nnc(SCc2ccccc2F)o1", "inhibition": "inactive: -4.74%"},
      {"smiles": "O=c1c2c([nH]c3ccccc13)CCCCC2", "inhibition": "inactive: -1.73%"},
      {"smiles": "CCN1CCN(c2nc3ccccn3c(=O)c2/C=C(\\C#N)S(=O)(=O)c2ccccc2)CC1", "inhibition": "inconclusive: 18.6%"},
      {"smiles": "CC1CCCCC1NC(=O)COC(=O)c1ccc2ncsc2c1", "note": "(stereo not drawn)", "inhibition": "inactive: -3.01%"},
      {"smiles": "NC(=O)N/N=C/c1ccccc1OCC(=O)NCc1ccccc1", "inhibition": "inactive: 0.132%"},
      {"smiles": "O=C(Oc1csc(=S)n1C(=O)c1ccccc1)c1ccccc1", "inhibition": "active: 36.6%"},
      {"smiles": "O=C1C(=O)N(CCN2CCOCC2)C(c2ccccn2)/C1=C(/O)c1ccccc1", "note": "(stereo not drawn)", "inhibition": "inconclusive: 21.3%"},
      {"smiles": "COc1cc(/C=C2\\SC(=S)N(Nc3ncc(C(F)(F)F)cc3Cl)C2=O)cc(OC)c1OC", "inhibition": "inconclusive: 21.6%"},
      {"smiles": "CCN1C(=O)[C@H]2[C@@H](c3ccc(C)cc3)N3C(=O)N(c4ccc(C(F)(F)F)cc4)C(=O)[C@@]3(CC(C)C)[C@H]2C1=O", "inhibition": "inconclusive: 26.1%"},
      {"smiles": "C=CCN1C(=O)CSc2ccc(C(=O)NCCC3=CCCCC3)cc21", "inhibition": "inconclusive: 14%"},
      {"smiles": "COc1ccccc1OCc1ccc(C(=O)N2N=C(C(F)F)CC2(O)C(F)F)o1", "note": "(stereo not drawn)", "inhibition": "inconclusive: 7.36%"},
      {"smiles": "O=C(NNc1c2ccccc2nc2ccccc12)c1ccc(O)cc1", "inhibition": "inconclusive: 28.4%"},
      {"smiles": "COc1ccc(NC(=O)COC(=O)/C=C/c2ccccc2[N+](=O)[O-])cc1OC", "inhibition": "inconclusive: 17.7%"},
      {"smiles": "Cn1c(NNC(=O)c2cccc3ccccc23)cc(=O)n(C)c1=O", "inhibition": "inactive: 0.432%"},
      {"smiles": "CC1=CC(=C(C#N)c2nc3ccccc3s2)C=C(C)N1Cc1ccco1", "inhibition": "inconclusive: 20.7%"}
    ]}
  ]
}
